Reference: patent US20040170997A1
Results are given in words; binding and its absence hold for the method and conditions named. For some assays here: Binding seen in cells or lysates may run through a third protein. Some binding calls cover weakened binding; strength is not graded here. Sequences can lack the tags named with a protein. Blank lines part the entries; values can stand above or below the binder they belong to.

Legend:
[1] = target: T1, FLAG-tagged mouse TRAF3 (mouse) (UniProt Q60803); assay: co-immunoprecipitation from transfected 293 cells, anti-FLAG M2 and anti-MYC 9E10 (FIG. 2C)
T1 sequence (looked up): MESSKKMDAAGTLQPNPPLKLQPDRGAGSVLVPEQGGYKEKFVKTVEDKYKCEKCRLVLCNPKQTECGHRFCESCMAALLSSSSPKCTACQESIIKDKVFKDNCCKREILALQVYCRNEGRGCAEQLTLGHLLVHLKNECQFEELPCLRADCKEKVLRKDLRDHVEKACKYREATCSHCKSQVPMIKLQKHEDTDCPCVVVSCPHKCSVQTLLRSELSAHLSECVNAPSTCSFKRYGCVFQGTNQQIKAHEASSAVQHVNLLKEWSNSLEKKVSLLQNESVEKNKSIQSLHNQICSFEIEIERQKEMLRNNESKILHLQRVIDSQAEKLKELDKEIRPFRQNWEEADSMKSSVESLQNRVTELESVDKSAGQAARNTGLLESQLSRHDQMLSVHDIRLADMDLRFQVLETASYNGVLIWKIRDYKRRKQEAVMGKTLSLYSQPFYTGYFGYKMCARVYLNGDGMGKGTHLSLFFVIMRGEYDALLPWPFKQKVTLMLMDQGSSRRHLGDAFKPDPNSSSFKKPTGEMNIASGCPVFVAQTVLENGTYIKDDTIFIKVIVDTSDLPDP

[2] = target: T1, FLAG-tagged mouse TRAF3 (mouse); assay: co-immunoprecipitation (conclusion of the example)
[3] = target: T1, FLAG-tagged mouse TRAF3 (mouse); assay: co-immunoprecipitation (legend of FIG. 2C)
[4] = target: T2, hSos-TRAF3 (full-length TRAF3 fused to hSos) (human) (UniProt Q07889+Q60803); assay: yeast cdc25H growth assay at 37 C (CytoTrap two-hybrid)
[5] = target: T2, hSos-TRAF3 (full-length TRAF3 fused to hSos) (human); assay: yeast cdc25H growth assay (CytoTrap two-hybrid)
[6] = target: T1, FLAG-tagged mouse TRAF3 (mouse); assay: GST pull-down from 293 cell lysate, anti-FLAG immunoblot (FIG. 2A)
[7] = target: T1, FLAG-tagged mouse TRAF3 (mouse); assay: GST pull-down from 293 cell lysates with FLAG-tagged TRAF2, TRAF3, TRAF5, TRAF6 (FIG. 2B)
[8] = target: T1, FLAG-tagged mouse TRAF3 (mouse); assay: GST pull-down (conclusion of the example)

binding [1]: binds
binding [2]: binds
binding [3]: binds
B1: MYC-tagged T3BP (full length T3BP containing C-terminal MYC epitope label) (receptor, not shown: small tags and cut ends)
chain: MGARRLRFRSQRSRDSSVPTQCNQTECFDPLVRNCVSCELFHTPDTGHTSSLEPGTALQPQEGSALRPDVALLVGAPALLGLILALTLVGLVSLVSWRWRQQLRTASPDTSEGVQQESLENVFVPSSETPHASAPTWPPLKEDADSALPRHSVPVPATELGSTELVTTKTAGPEQ

binding [4]: binds
binding [5]: binds
B2: clone 3 fused to myristylation signal (pMyr library plasmid) (protein)
chain: SLVSWRWRQQLRTASPDTSEGVQQESLENVFVPSSETPHASAPTWPPLKEDADSALPRHSVPVPATELGSTELVTTKTAGPEQ
modifications: myristylation signal sequence (membrane anchoring in yeast)

binding [6]: binds
binding [7]: binds
binding [8]: binds
B3: GST-clone 3 (protein, not shown: a dimerising Fc or GST)
chain: B2 chain
